Measured values published in publication PMC7368280.

Experiments:
[1] = target: T1, EMF1-3XFLAG (in emf1) (Arabidopsis) (UniProt Q9LYD9); assay: affinity purification with mass spectrometry; coIP-MS with EMF1-3XFLAG as bait from Arabidopsis plants (EMF1-3XFLAG emf1), control Col-0; two independent experiments; procedure in SI Appendix
T1 sequence: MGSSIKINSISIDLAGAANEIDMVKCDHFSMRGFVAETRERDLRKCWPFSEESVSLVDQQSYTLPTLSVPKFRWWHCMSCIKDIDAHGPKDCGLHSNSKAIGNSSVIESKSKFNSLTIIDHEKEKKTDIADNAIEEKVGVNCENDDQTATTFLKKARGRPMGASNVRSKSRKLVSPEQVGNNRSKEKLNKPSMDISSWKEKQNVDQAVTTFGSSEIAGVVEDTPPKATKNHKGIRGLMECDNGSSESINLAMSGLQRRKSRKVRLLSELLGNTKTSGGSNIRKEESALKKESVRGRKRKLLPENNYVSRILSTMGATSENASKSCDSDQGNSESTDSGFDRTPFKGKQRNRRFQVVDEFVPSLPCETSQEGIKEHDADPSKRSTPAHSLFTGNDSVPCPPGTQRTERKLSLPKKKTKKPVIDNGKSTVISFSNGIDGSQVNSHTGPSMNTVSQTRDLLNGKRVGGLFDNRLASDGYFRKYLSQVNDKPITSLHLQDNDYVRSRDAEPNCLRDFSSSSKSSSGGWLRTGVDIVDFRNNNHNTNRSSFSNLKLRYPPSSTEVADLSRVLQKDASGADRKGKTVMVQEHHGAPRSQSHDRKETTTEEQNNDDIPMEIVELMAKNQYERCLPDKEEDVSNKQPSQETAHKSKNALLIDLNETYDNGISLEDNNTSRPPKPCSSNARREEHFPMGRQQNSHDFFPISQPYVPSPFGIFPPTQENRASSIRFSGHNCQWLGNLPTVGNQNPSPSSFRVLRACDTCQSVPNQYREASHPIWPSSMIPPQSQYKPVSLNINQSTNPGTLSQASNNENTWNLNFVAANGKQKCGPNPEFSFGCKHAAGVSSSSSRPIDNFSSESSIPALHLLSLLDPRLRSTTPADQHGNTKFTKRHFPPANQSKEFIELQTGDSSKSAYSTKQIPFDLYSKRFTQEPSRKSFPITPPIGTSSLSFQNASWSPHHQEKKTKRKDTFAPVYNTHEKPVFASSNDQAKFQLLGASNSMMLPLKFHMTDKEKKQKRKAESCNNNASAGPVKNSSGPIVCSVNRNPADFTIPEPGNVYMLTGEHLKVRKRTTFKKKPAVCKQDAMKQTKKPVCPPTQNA

[2] = target: T2, ICU11-3xHA (gICU11-HA in icu11-3) (Arabidopsis) (UniProt Q3ED68); assay: affinity purification with mass spectrometry; coIP-MS with 3xHA-tagged ICU11 as bait from Arabidopsis plants (gICU11-HA icu11-3), control icu11-3; two independent experiments; procedure in SI Appendix
T2 sequence: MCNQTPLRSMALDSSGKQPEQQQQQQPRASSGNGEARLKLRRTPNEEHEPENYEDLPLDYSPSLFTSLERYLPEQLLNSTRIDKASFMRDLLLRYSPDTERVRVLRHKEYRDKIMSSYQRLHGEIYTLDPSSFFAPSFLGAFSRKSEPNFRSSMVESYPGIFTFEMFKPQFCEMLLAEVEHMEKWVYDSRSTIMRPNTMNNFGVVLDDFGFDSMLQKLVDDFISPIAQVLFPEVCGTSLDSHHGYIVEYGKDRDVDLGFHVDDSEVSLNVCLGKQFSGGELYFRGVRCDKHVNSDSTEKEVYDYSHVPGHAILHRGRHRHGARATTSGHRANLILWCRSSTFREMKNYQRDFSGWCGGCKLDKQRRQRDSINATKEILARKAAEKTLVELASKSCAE

[3] = target: T3, GFP-CLF (35S:GFP-CLF in clf-50) (Arabidopsis) (UniProt P93831); assay: affinity purification with mass spectrometry; coIP-MS with GFP-tagged baits from Arabidopsis plants (gICU11-GFP icu11-3; 35S:GFP-CLF clf-50; gSWN-GFP), control 35S::GFP; two independent experiments; procedure in SI Appendix
T3 sequence: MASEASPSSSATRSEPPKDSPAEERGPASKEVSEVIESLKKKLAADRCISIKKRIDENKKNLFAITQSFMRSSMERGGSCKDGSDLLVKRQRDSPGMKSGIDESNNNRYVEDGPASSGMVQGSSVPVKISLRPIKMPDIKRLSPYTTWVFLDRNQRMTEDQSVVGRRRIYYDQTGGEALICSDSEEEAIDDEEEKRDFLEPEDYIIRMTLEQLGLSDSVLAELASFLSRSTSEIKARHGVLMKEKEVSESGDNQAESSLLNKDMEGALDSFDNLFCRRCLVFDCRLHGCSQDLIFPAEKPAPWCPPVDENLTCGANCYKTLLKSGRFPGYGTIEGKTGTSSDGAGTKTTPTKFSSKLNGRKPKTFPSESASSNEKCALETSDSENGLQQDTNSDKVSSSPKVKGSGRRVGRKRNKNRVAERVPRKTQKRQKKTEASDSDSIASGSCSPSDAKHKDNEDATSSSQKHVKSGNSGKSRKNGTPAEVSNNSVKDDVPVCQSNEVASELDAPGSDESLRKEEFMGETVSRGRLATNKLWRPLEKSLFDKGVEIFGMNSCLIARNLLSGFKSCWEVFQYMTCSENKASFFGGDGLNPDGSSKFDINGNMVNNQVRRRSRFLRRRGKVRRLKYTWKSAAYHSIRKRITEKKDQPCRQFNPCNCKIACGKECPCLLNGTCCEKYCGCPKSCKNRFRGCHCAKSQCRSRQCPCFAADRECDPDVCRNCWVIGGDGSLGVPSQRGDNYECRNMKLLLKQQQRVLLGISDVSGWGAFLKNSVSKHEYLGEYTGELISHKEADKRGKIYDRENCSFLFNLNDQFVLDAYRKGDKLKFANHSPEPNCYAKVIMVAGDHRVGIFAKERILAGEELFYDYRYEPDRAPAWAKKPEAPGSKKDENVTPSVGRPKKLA

[4] = target: T4, ICU11-eGFP (gICU11-GFP in icu11-3) (Arabidopsis) (UniProt Q3ED68); assay: as above
T4 sequence: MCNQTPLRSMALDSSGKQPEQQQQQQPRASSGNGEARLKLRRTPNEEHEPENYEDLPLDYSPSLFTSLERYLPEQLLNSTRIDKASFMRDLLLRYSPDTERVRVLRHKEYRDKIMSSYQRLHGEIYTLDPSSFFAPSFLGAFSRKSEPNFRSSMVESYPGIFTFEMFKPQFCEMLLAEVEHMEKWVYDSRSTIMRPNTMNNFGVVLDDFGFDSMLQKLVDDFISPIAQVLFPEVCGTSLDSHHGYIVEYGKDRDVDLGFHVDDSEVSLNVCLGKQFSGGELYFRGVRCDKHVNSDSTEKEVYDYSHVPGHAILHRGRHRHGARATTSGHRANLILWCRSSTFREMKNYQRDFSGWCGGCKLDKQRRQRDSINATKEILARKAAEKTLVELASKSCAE

[5] = target: T5, SWN-GFP (gSWN-GFP) (Arabidopsis) (UniProt Q9ZSM8); assay: as above
T5 sequence: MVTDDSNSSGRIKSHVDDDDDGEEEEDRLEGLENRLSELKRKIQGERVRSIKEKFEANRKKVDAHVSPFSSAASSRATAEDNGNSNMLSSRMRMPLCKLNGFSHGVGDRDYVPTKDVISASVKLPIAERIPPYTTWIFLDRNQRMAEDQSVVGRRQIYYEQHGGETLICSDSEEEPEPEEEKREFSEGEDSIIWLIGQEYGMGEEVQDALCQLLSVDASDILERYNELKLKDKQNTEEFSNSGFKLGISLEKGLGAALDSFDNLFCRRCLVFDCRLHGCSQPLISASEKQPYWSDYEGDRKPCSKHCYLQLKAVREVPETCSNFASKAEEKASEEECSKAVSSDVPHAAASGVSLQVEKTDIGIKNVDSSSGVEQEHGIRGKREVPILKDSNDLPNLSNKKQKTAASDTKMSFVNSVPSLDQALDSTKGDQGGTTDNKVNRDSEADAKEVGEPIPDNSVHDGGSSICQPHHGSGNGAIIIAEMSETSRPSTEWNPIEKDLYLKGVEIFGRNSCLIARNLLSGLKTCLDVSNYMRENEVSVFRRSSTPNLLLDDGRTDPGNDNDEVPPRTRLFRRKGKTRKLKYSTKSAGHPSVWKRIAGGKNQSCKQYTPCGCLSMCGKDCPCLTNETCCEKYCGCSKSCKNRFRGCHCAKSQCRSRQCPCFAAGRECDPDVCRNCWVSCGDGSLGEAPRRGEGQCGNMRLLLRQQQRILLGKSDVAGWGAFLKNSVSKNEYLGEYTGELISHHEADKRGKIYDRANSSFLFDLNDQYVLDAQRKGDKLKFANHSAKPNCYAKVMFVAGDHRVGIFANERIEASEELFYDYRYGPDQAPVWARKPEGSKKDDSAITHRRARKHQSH

Measured: binding

B1: TELOMERE-REPEAT-BINDING (TRB) 3 (protein, UniProt Q9M2X3 1-295)
chain: MGAPKLKWTPEEETALKAGVLKHGTGKWRTILSDPVYSTILKSRSNVDLKDKWRNISVTALWGSRKKAKLALKRTPLSGSRQDDNATAITIVSLANGDVGGQQIDAPSPPAGSCEPPRPSTSVDKIILEAITSLKRPFGPDGKSILMYIEENFKMQPDMKRLVTSRLKYLTNVGTLVKKKHKYRISQNYMAEGEGQRSPQLLLEGNKENTPKPEENGVKNLTKSQVGGEVMIMGMTEKEAAAAAARAVAEAEFAMAEAEEAAREADKAEAEAEAAHIFAKAAMKAVKYRMHSQTR
binds: [1] | [2] | [3] | [4] | [5]

B2: LIKE HETEROCHROMATIN PROTEIN1 (protein, UniProt Q946J8 1-445)
chain: MKGASGAVKKKPQVLNEAGEAETAVETVGESRKISGDGGFGSDDGGGGGGGGSGESILREIGDDRPTEDGDEEEEEDEDEDDGGDEEDEEGEGEGGQEERPKLDEGFYEIEAIRRKRVRKGKVQYLIKWRGWPETANTWEPLENLQSIADVIDAFEGSLKPGKPGRKRKRKYAGPHSQMKKKQRLTSTSHDATEKSDSSTSLNNSSLPDIPDPLDLSGSSLLNRDVEAKNAYVSNQVEANSGSVGMARQVRLIDNEKEYDPTLNELRGPVNNSNGAGCSQGGGIGSEGDNVRPNGLLKVYPKELDKNSRFIGAKRRKSGSVKRFKQDGSTSNNHTAPTDQNLTPDLTTLDSFGRIARMGNEYPGVMENCNLSQKTKIEELDITKILKPMSFTASVSDNVQEVLVTFLALRSDGKEALVDNRFLKAHNPHLLIEFYEQHLKYNRTP
binds: [1] | [2] | [3] | [4] | [5]

B3: TELOMERE-REPEAT-BINDING (TRB) 2 (protein, UniProt Q9FJW5 1-299)
chain: MGAPKQKWTPEEEAALKAGVLKHGTGKWRTILSDTEFSLILKSRSNVDLKDKWRNISVTALWGSRKKAKLALKRTPPGTKQDDNNTALTIVALTNDDERAKPTSPGGSGGGSPRTCASKRSITSLDKIIFEAITNLRELRGSDRTSIFLYIEENFKTPPNMKRHVAVRLKHLSSNGTLVKIKHKYRFSSNFIPAGARQKAPQLFLEGNNKKDPTKPEENGANSLTKFRVDGELYMIKGMTAQEAAEAAARAVAEAEFAITEAEQAAKEAERAEAEAEAAQIFAKAAMKALKFRIRNHPW
binds: [1] | [2] | [3] | [4] | [5]

B4: INCURVATA11 (ICU11), endogenous (protein, UniProt Q3ED68 1-397)
chain: MCNQTPLRSMALDSSGKQPEQQQQQQPRASSGNGEARLKLRRTPNEEHEPENYEDLPLDYSPSLFTSLERYLPEQLLNSTRIDKASFMRDLLLRYSPDTERVRVLRHKEYRDKIMSSYQRLHGEIYTLDPSSFFAPSFLGAFSRKSEPNFRSSMVESYPGIFTFEMFKPQFCEMLLAEVEHMEKWVYDSRSTIMRPNTMNNFGVVLDDFGFDSMLQKLVDDFISPIAQVLFPEVCGTSLDSHHGYIVEYGKDRDVDLGFHVDDSEVSLNVCLGKQFSGGELYFRGVRCDKHVNSDSTEKEVYDYSHVPGHAILHRGRHRHGARATTSGHRANLILWCRSSTFREMKNYQRDFSGWCGGCKLDKQRRQRDSINATKEILARKAAEKTLVELASKSCAE
binds: [1] | [3] | [5]

No constants are given. Whether binding was seen depends on the method and setting. In cells and extracts the contact can be indirect. Here binding means that the protein was enriched with, or labelled near, the bait; the list need not be complete. Where a sequence is shown, tags or fusion partners need not be part of it.
